Source: paper PMC6232491
No constants are given. Whether binding was seen depends on the method and setting. Binding can be weak; no strength is given. Sequences can lack the tags named with a protein. For some assays here: Binding seen in cells or lysates may run through a third protein.

Columns and labels:
[1] = molecular target: T1, AtDRP2B–flag-4× c-myc (Arabidopsis thaliana) (UniProt Q9LQ55); assay: co-IP; TuMV-infected tissue of transgenic Arabidopsis homogenised, captured with anti-flag M2 gel, blotted with anti-TuMV CP polyclonal antibody
T1 sequence: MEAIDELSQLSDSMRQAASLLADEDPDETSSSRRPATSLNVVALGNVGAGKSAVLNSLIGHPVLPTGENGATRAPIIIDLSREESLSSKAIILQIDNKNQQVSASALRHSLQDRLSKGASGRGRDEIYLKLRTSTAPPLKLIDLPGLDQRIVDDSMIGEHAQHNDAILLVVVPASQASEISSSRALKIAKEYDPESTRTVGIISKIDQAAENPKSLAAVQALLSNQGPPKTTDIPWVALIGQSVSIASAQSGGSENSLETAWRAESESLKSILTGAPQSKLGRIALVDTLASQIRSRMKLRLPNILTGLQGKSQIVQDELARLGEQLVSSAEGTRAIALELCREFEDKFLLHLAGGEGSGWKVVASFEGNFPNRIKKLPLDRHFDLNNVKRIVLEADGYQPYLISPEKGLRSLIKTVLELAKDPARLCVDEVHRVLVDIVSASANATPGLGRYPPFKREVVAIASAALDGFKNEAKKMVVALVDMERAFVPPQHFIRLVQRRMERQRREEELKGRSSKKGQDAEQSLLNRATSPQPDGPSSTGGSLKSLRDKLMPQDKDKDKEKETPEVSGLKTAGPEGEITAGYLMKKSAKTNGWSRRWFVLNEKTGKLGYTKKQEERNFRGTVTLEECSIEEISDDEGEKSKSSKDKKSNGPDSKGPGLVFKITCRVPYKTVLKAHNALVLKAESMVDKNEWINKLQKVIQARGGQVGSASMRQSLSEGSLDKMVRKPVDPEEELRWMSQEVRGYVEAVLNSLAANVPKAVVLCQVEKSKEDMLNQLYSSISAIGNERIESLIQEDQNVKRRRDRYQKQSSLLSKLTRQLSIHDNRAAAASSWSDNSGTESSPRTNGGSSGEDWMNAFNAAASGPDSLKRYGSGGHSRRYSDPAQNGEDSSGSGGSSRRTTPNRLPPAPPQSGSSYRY

[2] = molecular target: T1, AtDRP2B–flag-4× c-myc (Arabidopsis thaliana); assay: immunocapture RT-PCR; TuMV-infected transgenic plants captured with anti-myc polyclonal or anti-flag monoclonal antibody; viral genomic RNA of the bound virions detected by RT-PCR
[3] = molecular target: T2, AtDRP1A–flag-4× c-myc (Arabidopsis thaliana) (UniProt P42697); assay: as above
T2 sequence: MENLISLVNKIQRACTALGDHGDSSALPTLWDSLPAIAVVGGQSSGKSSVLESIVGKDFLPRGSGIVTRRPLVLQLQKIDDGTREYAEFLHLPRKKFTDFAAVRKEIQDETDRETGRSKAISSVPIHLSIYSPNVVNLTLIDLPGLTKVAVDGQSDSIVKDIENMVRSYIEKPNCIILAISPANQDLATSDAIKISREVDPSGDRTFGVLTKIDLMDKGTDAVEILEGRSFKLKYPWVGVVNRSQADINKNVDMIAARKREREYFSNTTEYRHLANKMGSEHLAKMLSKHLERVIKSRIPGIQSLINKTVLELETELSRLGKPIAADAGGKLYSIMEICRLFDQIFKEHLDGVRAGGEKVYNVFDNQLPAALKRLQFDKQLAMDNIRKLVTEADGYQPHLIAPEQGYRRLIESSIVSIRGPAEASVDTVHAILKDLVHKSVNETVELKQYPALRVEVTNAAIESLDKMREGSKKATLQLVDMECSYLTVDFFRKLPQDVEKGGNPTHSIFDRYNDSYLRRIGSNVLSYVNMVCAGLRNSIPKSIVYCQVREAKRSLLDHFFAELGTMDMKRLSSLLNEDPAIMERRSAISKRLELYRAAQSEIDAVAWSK

[4] = molecular target: SMV CP fused to a split YFP half for BiFC (Soybean mosaic virus (SMV-L)); assay: split reporter; BiFC in N. benthamiana leaf cells; YN and YC fused to the C termini, exchanged for each pair
[5] = molecular target: SMV VPg fused to a split YFP half for BiFC (Soybean mosaic virus (SMV-L)); assay: as above
[6] = molecular target: SMV CI fused to a split YFP half for BiFC (Soybean mosaic virus (SMV-L)); assay: as above
[7] = molecular target: TuMV CI-YC (Turnip mosaic virus); assay: split reporter; BiFC in N. benthamiana leaf cells, confocal microscopy; AtDRP2B-YN with viral proteins fused to YC
[8] = molecular target: TuMV VPg-YC (Turnip mosaic virus); assay: as above
[9] = molecular target: TuMV 6K2-YC (Turnip mosaic virus); assay: as above
[10] = molecular target: TuMV CP-YC (Turnip mosaic virus); assay: as above

In the case of “Turnip mosaic virus capsid protein from infected Arabidopsis”, the binding [1] is reported as “binds”, the binding [2] is reported as “binds” and the binding [3] is reported as “binds weakly”.

B1: GmSDL5A fused to a split YFP half for BiFC (protein, UniProt Q39828 1-610)
chain: MENLISLVNKIQRACTALGDHGENSALPTLWDSLPAIAVVGGQSSGKSSVLESVVGKDFLPRGSGIVTRRPLVLQLHKIEEGSREYAEFLHLPRKRFTDFVAVRKEIQDETDRETGRTKQISTVPIHLSIYSPNVVNLTLVDLPGLTKVAVEGQPDSIVKDIEDMVRSYIEKPNCIILAISPANQDLATSDAIKISREVDPTGDRTIGVLTKIDLMDKGTDAVDILEGRAYRLKFPWIGVVNRSQQDINKNVDMIAARRREREYFNSTPEYKHLANRMGSEHLAKMLSKHLETVIKSKIPGIQSLINKTIAELEAELTRLGKPVAADAGGKLYAIMEICRSFDQIFKDHLDGVRPGGDKIYNVFDNQLPAALKRLQFDKQLSMENIRKLITEADGYQPHLIAPEQGYRRLIESSLITIRGPAEAAVDAVHSLLKDLVHKAISETLDLKQYPGLRVEVGAAAVDSLERMRDESKRATLQLVDMECGYLTVDFFRKLPQDVDKGGNPTHSIFDRYNDSYLRRIGTTILSYVNMVCATLRNSIPKSIVYCQVREAKRSLLDHFFTELGKMETKRLSSLLNEDPAIMERRSALAKRLELYRSAQAEIDAVAWSK
B1 was tested, and the binding [4] was “binds”, the binding [5] was “binds” and the binding [6] was “binds”.

B2: AtDRP2A fused to a split YFP half for BiFC (protein, UniProt Q9SE83 1-914)
chain: MEAIDELSQLSDSMKQAASLLADEDPDETSSSKRPATFLNVVALGNVGAGKSAVLNSLIGHPVLPTGENGATRAPIIIELSRESSLSSKAIILQIDNKSQQVSASALRHSLQDRLSKGASGKNRDEINLKLRTSTAPPLKLVDLPGLDQRIVDESMIAEYAQHNDAILLVIVPASQASEISSSRALKIAKEYDPESTRTIGIIGKIDQAAENSKALAAVQALLSNQGPPKTTDIPWVAVIGQSVSIASAQSGSGENSLETAWRAESESLKSILTGAPQSKLGRIALVDTLASQIRSRMKLRLPSVLSGLQGKSQIVQDELARLGEQLVNSAEGTRAIALELCREFEDKFLLHLAGGEGSGWKVVASFEGNFPNRIKQLPLDRHFDLNNVKRVVLEADGYQPYLISPEKGLRSLIKIVLELAKDPARLCVDEVHRVLVDIVSASANATPGLGRYPPFKREVVAIASAALDGFKNEAKKMVVALVDMERAFVPPQHFIRLVQRRMERQRREEELKGRSSKKGQDAEQSLLSRATSPQPDGPTAGGSLKSMKDKPSPQDKETPEVSGLKTAGPEGEITAGYLMKKSAKTNGWSRRWFVLNEKTGKLGYTKKQEERNFRGTITLEECTIEEIPEDEVEKSKSSKDKKANGPDSKGPGLVFKITCKVPYKTVLKAHNALVLKAESVVDKNEWINKLQKVIQARGGQVGSVSMRQSLSEGSLDKMVRKPIDPEEELRWMSQEVRGYVEAVLNSLAANVPKAVVLCQVEKAKEDMLNQLYSSISAIGNERIESLIQEDQNVKRRRERYQKQSSLLSKLTRQLSIHDNRAAAASSYSDNSGTESSPRASGGSSGDDWMNAFNSAANGPSDSLSKYGSGGHSRRYSDPAQNGDAASPGSGSNRRTTPNRLPPAPPPTGSAYRY
In the case of B2, the binding [7] is reported as “binds”, the binding [8] is reported as “binds” and the binding [9] is reported as “binds”. For the same molecule, the binding [10] was “binds”.

B3: AtDRP2B-YN (protein, UniProt Q9LQ55 1-920)
chain: T1 sequence
With B3 the binding [7] was “binds”, the binding [8] was “binds” and the binding [9] was “binds”. The binding [10] was “binds”.
